Experimental data as given in PMC8194061.
Results are given in words; binding and its absence hold for the method and conditions named. In cells and extracts the contact can be indirect. Some entries that bind do so weakly or less than the wild type.

Protein sequences, listed by entry. Tags and fused reporters are not part of them.
UniProt Q05BC3: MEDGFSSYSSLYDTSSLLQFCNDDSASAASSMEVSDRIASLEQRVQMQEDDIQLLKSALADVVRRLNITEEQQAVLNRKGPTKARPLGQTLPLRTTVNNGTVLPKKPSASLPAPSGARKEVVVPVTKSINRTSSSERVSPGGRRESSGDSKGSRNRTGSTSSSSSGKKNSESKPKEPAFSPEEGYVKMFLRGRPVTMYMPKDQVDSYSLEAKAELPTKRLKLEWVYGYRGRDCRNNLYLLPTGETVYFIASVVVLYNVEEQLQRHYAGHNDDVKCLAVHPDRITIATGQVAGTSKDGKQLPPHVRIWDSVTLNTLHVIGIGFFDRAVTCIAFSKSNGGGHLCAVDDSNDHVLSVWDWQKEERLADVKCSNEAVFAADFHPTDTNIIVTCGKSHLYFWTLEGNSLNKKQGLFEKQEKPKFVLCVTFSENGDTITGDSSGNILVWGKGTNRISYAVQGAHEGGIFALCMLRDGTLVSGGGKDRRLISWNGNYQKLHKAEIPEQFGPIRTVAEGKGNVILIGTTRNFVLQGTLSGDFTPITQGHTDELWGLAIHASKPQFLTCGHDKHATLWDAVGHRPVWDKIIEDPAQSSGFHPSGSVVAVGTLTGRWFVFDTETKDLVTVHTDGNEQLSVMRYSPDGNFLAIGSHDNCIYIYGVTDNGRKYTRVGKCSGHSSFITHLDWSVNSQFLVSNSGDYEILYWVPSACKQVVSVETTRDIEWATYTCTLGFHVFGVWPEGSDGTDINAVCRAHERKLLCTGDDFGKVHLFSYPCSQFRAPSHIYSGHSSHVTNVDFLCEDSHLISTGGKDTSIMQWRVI
UniProt Q9Y266: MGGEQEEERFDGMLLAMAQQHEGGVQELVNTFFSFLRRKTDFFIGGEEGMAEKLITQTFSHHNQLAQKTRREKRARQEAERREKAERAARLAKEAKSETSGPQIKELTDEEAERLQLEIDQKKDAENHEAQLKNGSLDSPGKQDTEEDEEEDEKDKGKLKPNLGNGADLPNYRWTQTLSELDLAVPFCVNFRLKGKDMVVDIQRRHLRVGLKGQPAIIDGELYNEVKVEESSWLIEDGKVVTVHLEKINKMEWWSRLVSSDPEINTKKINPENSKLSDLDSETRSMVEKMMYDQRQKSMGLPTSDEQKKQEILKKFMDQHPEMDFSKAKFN
UniProt O35685: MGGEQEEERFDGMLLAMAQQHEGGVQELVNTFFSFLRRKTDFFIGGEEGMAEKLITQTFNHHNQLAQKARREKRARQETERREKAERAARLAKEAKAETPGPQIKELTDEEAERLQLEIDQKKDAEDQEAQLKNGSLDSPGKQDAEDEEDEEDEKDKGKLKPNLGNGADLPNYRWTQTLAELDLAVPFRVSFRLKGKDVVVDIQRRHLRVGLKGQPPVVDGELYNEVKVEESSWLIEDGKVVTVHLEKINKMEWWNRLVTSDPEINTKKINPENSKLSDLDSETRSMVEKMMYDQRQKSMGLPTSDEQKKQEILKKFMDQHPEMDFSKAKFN

How the values were obtained:
[1] = target: EML1-3DDK fusion protein (echinoderm microtubule associated protein like 1, mouse) (mouse) (UniProt Q05BC3); experiment: co-IP; EML1-IP product from HEK293 cells expressing EML1-3DDK, blotted for NUDC and EML4
[2] = target: EML1-3DDK fusion protein (echinoderm microtubule associated protein like 1, mouse) (mouse) (UniProt Q05BC3); experiment: co-IP; HEK293T cells transfected at once with the plasmids of 3DDK-tagged EML1 and mKate-tagged NUDC; co-IP and blot with anti-DDK and anti-mKate antibodies

| binding [1] | binding [2] | Substance |
| --- | --- | --- |
| binds |  | NUDC (nuclear distribution C), found in the EML1-IP product (from UniProt Q9Y266 1-331) |
|  | binds | NUDC-mKate fusion protein (nuclear distribution gene C, mouse) (from UniProt O35685 1-332) |
